Measurements published in publication PMC12466122.
Results are given in words; binding and its absence hold for the method and conditions named. Binding seen in cells or lysates may run through a third protein. Some binding calls cover weakened binding; strength is not graded here.

Target: p53 (human (endogenous in SW1990)) (UniProt P04637)
Experiment: co-IP; immunoprecipitation of p53 or of KRAS from SW1990 cells with or without LINC00431 overexpression, hypoxia for 12 h, MG132 (1 μg/mL) in the last 2 h; TRAF7 immunoblotted

binding: binds
B1: tumor necrosis factor receptor-associated factor 7 (TRAF7) (protein, UniProt Q6Q0C0 1-670)
chain: MSSGKSARYNRFSGGPSNLPTPDVTTGTRMETTFGPAFSAVTTITKADGTSTYKQHCRTPSSSSTLAYSPRDEEDSMPPISTPRRSDSAISVRSLHSESSMSLRSTFSLPEEEEEPEPLVFAEQPSVKLCCQLCCSVFKDPVITTCGHTFCRRCALKSEKCPVDNVKLTVVVNNIAVAEQIGELFIHCRHGCRVAGSGKPPIFEVDPRGCPFTIKLSARKDHEGSCDYRPVRCPNNPSCPPLLRMNLEAHLKECEHIKCPHSKYGCTFIGNQDTYETHLETCRFEGLKEFLQQTDDRFHEMHVALAQKDQEIAFLRSMLGKLSEKIDQLEKSLELKFDVLDENQSKLSEDLMEFRRDASMLNDELSHINARLNMGILGSYDPQQIFKCKGTFVGHQGPVWCLCVYSMGDLLFSGSSDKTIKVWDTCTTYKCQKTLEGHDGIVLALCIQGCKLYSGSADCTIIVWDIQNLQKVNTIRAHDNPVCTLVSSHNVLFSGSLKAIKVWDIVGTELKLKKELTGLNHWVRALVAAQSYLYSGSYQTIKIWDIRTLDCIHVLQTSGGSVYSIAVTNHHIVCGTYENLIHVWDIESKEQVRTLTGHVGTVYALAVISTPDQTKVFSASYDRSLRVWSMDNMICTQTLLRHQGSVTALAVSRGRLFSGAVDSTVKVWTC
